Assay results as given in publication doi:10.1101/2022.07.01.497917.
No constants are given. Whether binding was seen depends on the method and setting. In cells and extracts the contact can be indirect. Binding calls can cover weak binding; strength is not graded here. Values belong to the molecule of their own block, whether it stands above or below them.

The chains behind the UniProt entries cited, without tags or fusion partners. Where a name states a change or a piece, a line headed by the entry shows the natural chain unless it says otherwise. Residues count along the entry.
UniProt Q8WWQ8: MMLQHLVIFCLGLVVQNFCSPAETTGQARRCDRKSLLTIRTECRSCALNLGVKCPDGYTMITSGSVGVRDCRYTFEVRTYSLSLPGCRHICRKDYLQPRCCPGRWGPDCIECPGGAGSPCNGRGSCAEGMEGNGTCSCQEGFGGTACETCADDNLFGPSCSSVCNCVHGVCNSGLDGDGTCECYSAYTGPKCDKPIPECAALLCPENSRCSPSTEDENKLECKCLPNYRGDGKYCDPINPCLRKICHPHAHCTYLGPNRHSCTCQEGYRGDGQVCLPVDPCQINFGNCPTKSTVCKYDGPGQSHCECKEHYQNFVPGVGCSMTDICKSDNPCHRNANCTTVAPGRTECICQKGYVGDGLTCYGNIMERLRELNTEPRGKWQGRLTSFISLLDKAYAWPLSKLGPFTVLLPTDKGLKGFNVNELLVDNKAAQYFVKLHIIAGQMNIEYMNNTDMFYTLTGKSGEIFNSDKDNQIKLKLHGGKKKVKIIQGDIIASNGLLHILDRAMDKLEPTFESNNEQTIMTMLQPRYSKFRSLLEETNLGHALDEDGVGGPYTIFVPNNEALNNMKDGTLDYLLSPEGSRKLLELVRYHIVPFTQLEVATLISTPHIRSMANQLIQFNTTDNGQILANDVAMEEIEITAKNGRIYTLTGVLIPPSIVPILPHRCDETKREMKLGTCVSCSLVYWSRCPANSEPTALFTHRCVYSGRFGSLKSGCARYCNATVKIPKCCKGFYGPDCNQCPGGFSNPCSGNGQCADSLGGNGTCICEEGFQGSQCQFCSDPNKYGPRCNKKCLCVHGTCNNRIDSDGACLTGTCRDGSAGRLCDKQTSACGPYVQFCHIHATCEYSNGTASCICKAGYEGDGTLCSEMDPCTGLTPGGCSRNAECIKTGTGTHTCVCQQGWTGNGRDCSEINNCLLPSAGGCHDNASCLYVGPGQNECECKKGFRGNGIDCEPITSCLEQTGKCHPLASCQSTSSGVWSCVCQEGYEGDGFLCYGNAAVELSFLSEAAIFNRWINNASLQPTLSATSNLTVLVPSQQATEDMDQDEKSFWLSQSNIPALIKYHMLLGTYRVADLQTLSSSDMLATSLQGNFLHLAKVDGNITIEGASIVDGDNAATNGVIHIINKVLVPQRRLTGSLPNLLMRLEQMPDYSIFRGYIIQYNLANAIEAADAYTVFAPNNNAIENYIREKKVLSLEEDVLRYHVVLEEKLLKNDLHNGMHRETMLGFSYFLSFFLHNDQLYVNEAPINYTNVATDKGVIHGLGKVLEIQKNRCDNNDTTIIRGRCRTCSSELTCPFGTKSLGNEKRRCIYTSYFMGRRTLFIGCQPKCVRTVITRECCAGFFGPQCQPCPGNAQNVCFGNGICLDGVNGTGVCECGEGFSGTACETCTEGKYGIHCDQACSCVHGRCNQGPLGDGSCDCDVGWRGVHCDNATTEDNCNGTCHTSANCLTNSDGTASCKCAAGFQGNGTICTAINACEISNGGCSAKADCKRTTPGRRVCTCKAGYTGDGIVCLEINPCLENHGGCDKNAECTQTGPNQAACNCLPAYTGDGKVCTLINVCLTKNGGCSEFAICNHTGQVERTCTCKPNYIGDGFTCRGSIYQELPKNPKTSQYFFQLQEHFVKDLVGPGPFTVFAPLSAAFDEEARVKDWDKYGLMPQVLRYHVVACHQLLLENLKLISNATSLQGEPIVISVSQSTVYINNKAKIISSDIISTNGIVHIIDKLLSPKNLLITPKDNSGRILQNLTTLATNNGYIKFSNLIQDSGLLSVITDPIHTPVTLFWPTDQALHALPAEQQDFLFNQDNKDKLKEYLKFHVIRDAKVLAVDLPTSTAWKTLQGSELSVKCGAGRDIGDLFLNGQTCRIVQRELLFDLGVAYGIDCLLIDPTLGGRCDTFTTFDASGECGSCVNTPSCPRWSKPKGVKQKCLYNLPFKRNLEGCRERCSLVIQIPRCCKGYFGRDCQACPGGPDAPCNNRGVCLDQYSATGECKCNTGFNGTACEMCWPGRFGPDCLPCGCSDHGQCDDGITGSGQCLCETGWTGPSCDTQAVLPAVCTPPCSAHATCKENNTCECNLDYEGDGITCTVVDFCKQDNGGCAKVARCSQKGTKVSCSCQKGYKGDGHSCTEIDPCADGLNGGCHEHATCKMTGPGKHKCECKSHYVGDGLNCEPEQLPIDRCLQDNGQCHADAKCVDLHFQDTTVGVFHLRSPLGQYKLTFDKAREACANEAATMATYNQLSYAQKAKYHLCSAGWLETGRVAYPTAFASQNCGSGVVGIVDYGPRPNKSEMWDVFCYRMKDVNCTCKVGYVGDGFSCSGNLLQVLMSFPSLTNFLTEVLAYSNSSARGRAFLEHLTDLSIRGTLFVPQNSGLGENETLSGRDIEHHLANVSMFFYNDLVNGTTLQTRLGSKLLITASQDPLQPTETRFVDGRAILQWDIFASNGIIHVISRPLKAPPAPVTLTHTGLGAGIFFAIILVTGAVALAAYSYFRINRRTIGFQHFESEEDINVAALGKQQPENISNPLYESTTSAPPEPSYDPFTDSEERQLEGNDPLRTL
UniProt Q9NY15: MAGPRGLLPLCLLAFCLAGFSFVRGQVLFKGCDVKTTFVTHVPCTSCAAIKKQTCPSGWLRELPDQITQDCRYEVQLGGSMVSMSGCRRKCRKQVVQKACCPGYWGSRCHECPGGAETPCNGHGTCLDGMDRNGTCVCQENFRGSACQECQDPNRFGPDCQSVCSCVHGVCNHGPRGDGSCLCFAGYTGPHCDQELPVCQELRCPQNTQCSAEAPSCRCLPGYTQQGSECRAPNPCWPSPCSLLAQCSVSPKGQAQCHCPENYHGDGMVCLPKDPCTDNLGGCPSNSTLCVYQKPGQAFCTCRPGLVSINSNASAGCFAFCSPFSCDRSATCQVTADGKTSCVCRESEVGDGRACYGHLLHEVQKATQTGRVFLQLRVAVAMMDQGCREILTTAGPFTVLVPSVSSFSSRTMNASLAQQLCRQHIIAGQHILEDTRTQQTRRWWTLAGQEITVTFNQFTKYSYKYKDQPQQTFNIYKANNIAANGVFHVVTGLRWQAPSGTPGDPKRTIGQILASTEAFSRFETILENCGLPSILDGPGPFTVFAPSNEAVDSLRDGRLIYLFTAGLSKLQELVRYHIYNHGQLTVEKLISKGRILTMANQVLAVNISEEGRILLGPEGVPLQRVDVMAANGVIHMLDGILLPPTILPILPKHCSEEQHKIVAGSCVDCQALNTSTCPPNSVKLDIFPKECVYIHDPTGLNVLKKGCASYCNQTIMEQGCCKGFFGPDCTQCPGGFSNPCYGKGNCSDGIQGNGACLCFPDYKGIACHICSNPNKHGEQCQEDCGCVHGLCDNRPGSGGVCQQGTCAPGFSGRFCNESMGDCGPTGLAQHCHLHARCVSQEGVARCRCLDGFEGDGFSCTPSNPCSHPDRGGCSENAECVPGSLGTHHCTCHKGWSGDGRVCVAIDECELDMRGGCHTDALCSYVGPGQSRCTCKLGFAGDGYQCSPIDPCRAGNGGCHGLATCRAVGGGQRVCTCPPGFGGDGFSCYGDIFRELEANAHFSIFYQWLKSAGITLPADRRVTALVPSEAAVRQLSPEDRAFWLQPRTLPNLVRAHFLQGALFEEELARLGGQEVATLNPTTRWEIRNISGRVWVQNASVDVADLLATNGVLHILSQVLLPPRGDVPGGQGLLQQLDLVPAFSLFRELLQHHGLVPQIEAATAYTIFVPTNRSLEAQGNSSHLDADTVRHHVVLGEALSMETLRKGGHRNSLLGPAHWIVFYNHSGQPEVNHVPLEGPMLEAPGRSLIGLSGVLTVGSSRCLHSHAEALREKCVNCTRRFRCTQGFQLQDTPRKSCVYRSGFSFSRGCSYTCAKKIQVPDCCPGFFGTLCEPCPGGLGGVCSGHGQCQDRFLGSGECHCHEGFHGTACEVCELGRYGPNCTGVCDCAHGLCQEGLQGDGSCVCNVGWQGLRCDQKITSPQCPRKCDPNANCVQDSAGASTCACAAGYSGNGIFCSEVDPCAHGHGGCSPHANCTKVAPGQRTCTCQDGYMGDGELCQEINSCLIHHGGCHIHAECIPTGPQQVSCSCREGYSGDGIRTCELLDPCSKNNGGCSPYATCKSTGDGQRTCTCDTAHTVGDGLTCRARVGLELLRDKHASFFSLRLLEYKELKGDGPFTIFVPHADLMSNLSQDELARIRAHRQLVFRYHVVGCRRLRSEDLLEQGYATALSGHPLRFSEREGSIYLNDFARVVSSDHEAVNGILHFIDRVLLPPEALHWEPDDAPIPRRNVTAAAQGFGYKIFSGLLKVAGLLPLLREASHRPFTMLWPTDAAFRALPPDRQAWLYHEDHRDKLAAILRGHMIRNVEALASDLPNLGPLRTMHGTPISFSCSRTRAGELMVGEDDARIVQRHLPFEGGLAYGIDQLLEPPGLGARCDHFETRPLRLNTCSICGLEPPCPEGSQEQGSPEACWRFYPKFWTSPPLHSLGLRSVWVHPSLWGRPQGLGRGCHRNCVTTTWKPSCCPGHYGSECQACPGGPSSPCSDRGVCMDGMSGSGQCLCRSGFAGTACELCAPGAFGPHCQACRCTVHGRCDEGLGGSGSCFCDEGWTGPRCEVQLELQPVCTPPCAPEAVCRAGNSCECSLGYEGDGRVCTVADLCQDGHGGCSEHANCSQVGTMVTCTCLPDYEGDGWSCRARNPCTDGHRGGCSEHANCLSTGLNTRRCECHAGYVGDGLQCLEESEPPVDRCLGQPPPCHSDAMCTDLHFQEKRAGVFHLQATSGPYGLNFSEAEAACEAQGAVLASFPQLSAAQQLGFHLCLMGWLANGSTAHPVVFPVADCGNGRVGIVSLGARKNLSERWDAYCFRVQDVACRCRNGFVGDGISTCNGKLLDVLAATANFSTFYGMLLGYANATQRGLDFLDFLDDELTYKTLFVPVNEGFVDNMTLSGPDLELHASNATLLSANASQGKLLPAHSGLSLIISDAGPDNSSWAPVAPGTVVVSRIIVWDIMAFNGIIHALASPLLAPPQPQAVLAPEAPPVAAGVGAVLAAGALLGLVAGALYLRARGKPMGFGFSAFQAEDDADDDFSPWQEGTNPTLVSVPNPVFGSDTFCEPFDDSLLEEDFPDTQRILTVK
UniProt Q15063, residues 22-836: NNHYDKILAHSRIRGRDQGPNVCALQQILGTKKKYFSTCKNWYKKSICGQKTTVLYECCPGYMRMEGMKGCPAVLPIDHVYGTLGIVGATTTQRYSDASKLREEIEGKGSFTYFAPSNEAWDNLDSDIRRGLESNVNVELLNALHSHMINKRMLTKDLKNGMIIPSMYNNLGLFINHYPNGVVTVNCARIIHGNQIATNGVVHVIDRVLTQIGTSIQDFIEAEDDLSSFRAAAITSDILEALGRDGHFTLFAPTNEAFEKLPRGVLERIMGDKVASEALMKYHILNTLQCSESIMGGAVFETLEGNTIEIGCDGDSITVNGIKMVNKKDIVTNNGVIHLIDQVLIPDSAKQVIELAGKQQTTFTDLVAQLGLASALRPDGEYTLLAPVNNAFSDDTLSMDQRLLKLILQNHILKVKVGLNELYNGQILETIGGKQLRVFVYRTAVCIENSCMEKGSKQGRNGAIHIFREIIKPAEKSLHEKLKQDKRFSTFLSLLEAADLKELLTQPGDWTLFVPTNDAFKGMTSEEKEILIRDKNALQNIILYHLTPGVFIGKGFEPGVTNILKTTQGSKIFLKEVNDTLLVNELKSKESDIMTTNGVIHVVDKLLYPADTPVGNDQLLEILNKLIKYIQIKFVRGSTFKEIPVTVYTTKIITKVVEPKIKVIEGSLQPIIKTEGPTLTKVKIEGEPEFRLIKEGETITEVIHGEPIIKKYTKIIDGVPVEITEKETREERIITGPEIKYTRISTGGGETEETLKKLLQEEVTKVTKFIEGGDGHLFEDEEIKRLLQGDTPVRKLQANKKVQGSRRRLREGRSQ

Tests used:
[1] = biological target: GST-tagged fragment of human Stab2, hStab2 F1-2 (human) (UniProt Q8WWQ8); test: pull-down
[2] = biological target: GST-tagged fragment of human Stab1, hStab1 F1-2 (human) (UniProt Q9NY15); test: pull-down

binding [1]: binds
binding [2]: binds
Molecule: recombinant human Periostin (POSTN) (from UniProt Q15063 22-836) (ligand)

binding [1]: binds
binding [2]: binds
B1: recombinant human Transforming growth factor, beta-induced (TGFBi) (ligand, UniProt Q15582 24-683)
chain: GPAKSPYQLVLQHSRLRGRQHGPNVCAVQKVIGTNRKYFTNCKQWYQRKICGKSTVISYECCPGYEKVPGEKGCPAALPLSNLYETLGVVGSTTTQLYTDRTEKLRPEMEGPGSFTIFAPSNEAWASLPAEVLDSLVSNVNIELLNALRYHMVGRRVLTDELKHGMTLTSMYQNSNIQIHHYPNGIVTVNCARLLKADHHATNGVVHLIDKVISTITNNIQQIIEIEDTFETLRAAVAASGLNTMLEGNGQYTLLAPTNEAFEKIPSETLNRILGDPEALRDLLNNHILKSAMCAEAIVAGLSVETLEGTTLEVGCSGDMLTINGKAIISNKDILATNGVIHYIDELLIPDSAKTLFELAAESDVSTAIDLFRQAGLGNHLSGSERLTLLAPLNSVFKDGTPPIDAHTRNLLRNHIIKDQLASKYLYHGQTLETLGGKKLRVFVYRNSLCIENSCIAAHDKRGRYGTLFTMDRVLTPPMGTVMDVLKGDNRFSMLVAAIQSAGLTETLNREGVYTVFAPTNEAFRALPPRERSRLLGDAKELANILKYHIGDEILVSGGIGALVRLKSLQGDKLEVSLKNNVVSVNKEPVAEPDIMATNGVVHVITNVLQPPANRPQERGDELADSALEIFKQASAFSRASQRSVRLAPVYQKLLERMKH
